Test results reported in paper PMC4742742.
Results are given in words; binding and its absence hold for the method and conditions named. Binding seen in cells or lysates may run through a third protein. Some results given as binding are weak or reduced against the parent protein; the word gives no strength.

What was measured:
[1] = biological target: N-terminal region of Efb (Efb-N), recombinant residues 29-103, His-tagged (Staphylococcus aureus); test: pull-down; His-tagged Efb or Efb-N on His-Select HF nickel affinity gel; human platelet lysate (ultrasonication) with 3 mg/ml added fibrinogen; immunoblot; only the target purified
[2] = biological target: Extracellular fibrinogen-binding protein (Efb), recombinant full-length Efb (residues 29-165), His-tagged (Staphylococcus aureus); test: as above
[3] = biological target: N-terminal region of Efb (Efb-N), recombinant residues 29-103, His-tagged (Staphylococcus aureus); test: pull-down; His-tagged Efb or Efb-N on His-Select HF nickel affinity gel; human platelet lysate (ultrasonication) without added fibrinogen; immunoblot; only the target purified
[4] = biological target: Extracellular fibrinogen-binding protein (Efb), recombinant full-length Efb (residues 29-165), His-tagged (Staphylococcus aureus); test: as above

Measured: binding

B1: Multimerin-1 (protein, UniProt Q13201 20-1228)
chain: LNNSKHSWTIPEDGNSQKTMPSASVPPNKIQSLQILPTTRVMSAEIATTPEARTSEDSLLKSTLPPSETSAPAEGVRNQTLTSTEKAEGVVKLQNLTLPTNASIKFNPGAESVVLSNSTLKFLQSFARKSNEQATSLNTVGGTGGIGGVGGTGGVGNRAPRETYLSRGDSSSSQRTDYQKSNFETTRGKNWCAYVHTRLSPTVILDNQVTYVPGGKGPCGWTGGSCPQRSQKISNPVYRMQHKIVTSLDWRCCPGYSGPKCQLRAQEQQSLIHTNQAESHTAVGRGVAEQQQQQGCGDPEVMQKMTDQVNYQAMKLTLLQKKIDNISLTVNDVRNTYSSLEGKVSEDKSREFQSLLKGLKSKSINVLIRDIVREQFKIFQNDMQETVAQLFKTVSSLSEDLESTRQIIQKVNESVVSIAAQQKFVLVQENRPTLTDIVELRNHIVNVRQEMTLTCEKPIKELEVKQTHLEGALEQEHSRSILYYESLNKTLSKLKEVHEQLLSTEQVSDQKNAPAAESVSNNVTEYMSTLHENIKKQSLMMLQMFEDLHIQESKINNLTVSLEMEKESLRGECEDMLSKCRNDFKFQLKDTEENLHVLNQTLAEVLFPMDNKMDKMSEQLNDLTYDMEILQPLLEQGASLRQTMTYEQPKEAIVIRKKIENLTSAVNSLNFIIKELTKRHNLLRNEVQGRDDALERRINEYALEMEDGLNKTMTIINNAIDFIQDNYALKETLSTIKDNSEIHHKCTSDMETILTFIPQFHRLNDSIQTLVNDNQRYNFVLQVAKTLAGIPRDEKLNQSNFQKMYQMFNETTSQVRKYQQNMSHLEEKLLLTTKISKNFETRLQDIESKVTQTLIPYYISVKKGSVVTNERDQALQLQVLNSRFKALEAKSIHLSINFFSLNKTLHEVLTMCHNASTSVSELNATIPKWIKHSLPDIQLLQKGLTEFVEPIIQIKTQAALSNLTCCIDRSLPGSLANVVKSQKQVKSLPKKINALKKPTVNLTTVLIGRTQRNTDNIIYPEEYSSCSRHPCQNGGTCINGRTSFTCACRHPFTGDNCTIKLVEENALAPDFSKGSYRYAPMVAFFASHTYGMTIPGPILFNNLDVNYGASYTPRTGKFRIPYLGVYVFKYTIESFSAHISGFLVVDGIDKLAFESENINSEIHCDRVLTGDALLELNYGQEVWLRLAKGTIPAKFPPVTTFSGYLLYRT
binds: all assays above
